Results as given in paper PMC10849753, “Antiproliferative activity of platinum(II) and copper(II) complexes containing novel biquinoxaline ligands” (Metallomics: Integrated Biometal Science, 2024).

The compounds below were run on CT-DNA (assay: UV (electronic absorption) titration with CT-DNA). Details: binding to CT-DNA, 310-340 K.
Set-up: species or system calf

| Structure (SMILES) | ΔG^o (standard Gibbs free energy change) | ΔH^o (standard enthalpy change) | ΔS^o (standard entropy change) |
| --- | --- | --- | --- |
| [Cl][Cu][Cl].c1ccc(-c2nc3ccc(-c4ccc5nc(-c6ccccn6)c(-c6ccccn6)nc5c4)cc3nc2-c2ccccn2)nc1 [Cu(tpbq)Cl2] | -22400 J | -85300 J | −207.58 J/K |
| [Cl][Pt][Cl].c1ccc(-c2nc3ccc(-c4ccc5nc(-c6ccccn6)c(-c6ccccn6)nc5c4)cc3nc2-c2ccccn2)nc1 [Pt(tpbq)Cl2] | -19900 J | -38200 J | −59.89 J/K |
| [Cl][Pt][Cl].c1csc(-c2nc3ccc(-c4ccc5nc(-c6cccs6)c(-c6cccs6)nc5c4)cc3nc2-c2cccs2)c1 [Pt(ttbq)Cl2] | -16800 J | -28700 J | −39.74 J/K |
| [Cl][Cu][Cl].c1csc(-c2nc3ccc(-c4ccc5nc(-c6cccs6)c(-c6cccs6)nc5c4)cc3nc2-c2cccs2)c1 [Cu(ttbq)Cl2] | -19600 J | -11500 J | 26.78 J/K |
